Measurements reported in PubChem BioAssay AID652243 (Drosophila RNAi Screening Center, 2013)
In all, the deposit lists about 24,000 reagents; this is a random part of those that have a named target and a result. Over the whole deposit, 246 (1%) are marked active. 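Plates not normalised; calls are printed but the firefly/Renilla ratio behind them is not deposited; fold cut for lowering reported inconsistently.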 Raw values vary from plate to plate and are shown uncorrected. Entries without a mark were called inactive. The record does not give: the amount of reagent.

Screen: 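Fly genes required for human androgen receptor driven transcription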 (primary screen)
Cells: Drosophila S2R+ cells
Reagent: long dsRNA against Drosophila genes
Duration: 72 h (48 h, then 24 h hormone)
Treatment: synthetic androgen R1881 at 10 nM for 24 h
Measured: 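Per-well raw luminescence of the androgen-driven firefly reporter and of the Renilla control, two replicates each, without normalisation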
Direction: firefly reporter light: higher = more light from androgen-responsive reporter; Renilla control light: higher = more constitutive control signal (cell number, transfection)
Active means: 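Across duplicate plates, a knock-down whose log firefly/Renilla ratio shifted a set fold down or up from the GFP/LacZ control mean was a hit; the downward cut appears as both 1.5 and 3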
Calls: active = hit: reporter lowered or raised; inactive = no hit

Knock-down of ScsbetaA [DRSC14446] gave: firefly reporter light, replicate 1 = 53751; firefly reporter light, replicate 2 = 40955; Renilla control light, replicate 1 = 2.49e5; Renilla control light, replicate 2 = 4.08e5. ScsbetaA [DRSC27770] showed firefly reporter light, replicate 1 = 2.00e5; firefly reporter light, replicate 2 = 2.04e5; Renilla control light, replicate 1 = 5.32e5; Renilla control light, replicate 2 = 7.70e5. Knock-down of CD98hc [DRSC15453] gave: firefly reporter light, replicate 1 = 72334; firefly reporter light, replicate 2 = 73638; Renilla control light, replicate 1 = 2.11e6; Renilla control light, replicate 2 = 1.45e6. For CG33511 [DRSC37783], the entry reads firefly reporter light, replicate 1 = 8.61e5; firefly reporter light, replicate 2 = 7.18e5; Renilla control light, replicate 1 = 2.30e6; Renilla control light, replicate 2 = 1.16e6. Knock-down of CG33647 [DRSC37823] gave: firefly reporter light, replicate 1 = 6.32e5; firefly reporter light, replicate 2 = 8.46e5; Renilla control light, replicate 1 = 1.67e6; Renilla control light, replicate 2 = 2.04e6. With knock-down of Poc1 [DRSC09713], the screen gave firefly reporter light, replicate 1 = 6.61e5; firefly reporter light, replicate 2 = 5.79e5; Renilla control light, replicate 1 = 1.17e6; Renilla control light, replicate 2 = 1.63e6.

With knock-down of Poc1 [DRSC28330], the record shows firefly reporter light, replicate 1 = 3.36e5; firefly reporter light, replicate 2 = 5.45e5; Renilla control light, replicate 1 = 8.61e5; Renilla control light, replicate 2 = 1.73e6.

Only “Renilla control light, replicate 1”, for 4 of the entries above:
CG33511 [DRSC37783] = 2.30e6
CG33647 [DRSC37823] = 1.67e6
Poc1 [DRSC09713] = 1.17e6
Poc1 [DRSC28330] = 8.61e5

The listing continues:
With knock-down of mtrm [DRSC23076], the screen gave firefly reporter light, replicate 1 = 4.81e5; firefly reporter light, replicate 2 = 5.05e5; Renilla control light, replicate 1 = 1.92e6; Renilla control light, replicate 2 = 2.43e6. CG10494 [DRSC04072] showed firefly reporter light, replicate 1 = 1.03e6; firefly reporter light, replicate 2 = 1.11e6; Renilla control light, replicate 1 = 2.47e6; Renilla control light, replicate 2 = 2.35e6. After knock-down of CG10494 [DRSC29883] the results were firefly reporter light, replicate 1 = 5.64e5; firefly reporter light, replicate 2 = 2.68e5; Renilla control light, replicate 1 = 1.08e6; Renilla control light, replicate 2 = 5.93e5. With knock-down of CG10764 [DRSC06000], the screen gave firefly reporter light, replicate 1 = 1.15e6; firefly reporter light, replicate 2 = 4.03e5; Renilla control light, replicate 1 = 1.06e6; Renilla control light, replicate 2 = 3.45e5. Silencing of Dpck [DRSC12575] gave: firefly reporter light, replicate 1 = 18762; firefly reporter light, replicate 2 = 25756; Renilla control light, replicate 1 = 1.37e6; Renilla control light, replicate 2 = 1.40e6. Against GlcAT-S [DRSC02731] the deposit lists firefly reporter light, replicate 1 = 9.81e5; firefly reporter light, replicate 2 = 9.95e5; Renilla control light, replicate 1 = 1.91e6; Renilla control light, replicate 2 = 1.97e6.

GlcAT-S [DRSC27771] gave firefly reporter light, replicate 1 = 2.89e5; firefly reporter light, replicate 2 = 2.13e5; Renilla control light, replicate 1 = 6.91e5; Renilla control light, replicate 2 = 5.47e5. For CG17191 [DRSC15185], the entry reads firefly reporter light, replicate 1 = 1.77e5; firefly reporter light, replicate 2 = 2.32e5; Renilla control light, replicate 1 = 1.18e6; Renilla control light, replicate 2 = 2.34e6. For CG17191 [DRSC24134], the entry reads firefly reporter light, replicate 1 = 6.98e5; firefly reporter light, replicate 2 = 6.35e5; Renilla control light, replicate 1 = 7.22e5; Renilla control light, replicate 2 = 6.80e5. After knock-down of Ir68b [DRSC10251], the screen gave firefly reporter light, replicate 1 = 3.31e5; firefly reporter light, replicate 2 = 1.95e5; Renilla control light, replicate 1 = 1.25e6; Renilla control light, replicate 2 = 1.18e6. RpL22 [DRSC18707] showed firefly reporter light, replicate 1 = 1.76e5; firefly reporter light, replicate 2 = 2.05e5; Renilla control light, replicate 1 = 1.30e6; Renilla control light, replicate 2 = 1.00e6. Silencing of RpL22 [DRSC22819] came out at: firefly reporter light, replicate 1 = 2.43e5; firefly reporter light, replicate 2 = 3.65e5; Renilla control light, replicate 1 = 4.59e5; Renilla control light, replicate 2 = 8.07e5.

Knock-down of CG12995 [DRSC19515] came out at: firefly reporter light, replicate 1 = 2.95e5; firefly reporter light, replicate 2 = 2.89e5; Renilla control light, replicate 1 = 3.28e6; Renilla control light, replicate 2 = 3.41e6. Against CG12995 [DRSC27519], the entry reads firefly reporter light, replicate 1 = 2.64e5; firefly reporter light, replicate 2 = 2.58e5; Renilla control light, replicate 1 = 5.37e5; Renilla control light, replicate 2 = 8.79e5.
